# Some of the results follow.
# Chains of the proteins cited; added tags and fusions are not shown. Lines headed by an entry give the natural chain unless they say otherwise; changes in a name come on top.
# UniProt Q9Y266: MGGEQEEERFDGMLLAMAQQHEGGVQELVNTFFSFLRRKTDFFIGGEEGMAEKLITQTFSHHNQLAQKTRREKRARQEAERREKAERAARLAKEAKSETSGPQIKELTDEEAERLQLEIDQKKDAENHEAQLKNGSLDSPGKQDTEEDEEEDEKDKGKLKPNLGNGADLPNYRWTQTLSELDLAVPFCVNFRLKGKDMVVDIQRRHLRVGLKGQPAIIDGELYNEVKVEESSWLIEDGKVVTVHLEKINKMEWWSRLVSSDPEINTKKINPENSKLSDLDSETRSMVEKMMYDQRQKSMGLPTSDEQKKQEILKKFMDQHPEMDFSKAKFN
# UniProt Q9BQG2: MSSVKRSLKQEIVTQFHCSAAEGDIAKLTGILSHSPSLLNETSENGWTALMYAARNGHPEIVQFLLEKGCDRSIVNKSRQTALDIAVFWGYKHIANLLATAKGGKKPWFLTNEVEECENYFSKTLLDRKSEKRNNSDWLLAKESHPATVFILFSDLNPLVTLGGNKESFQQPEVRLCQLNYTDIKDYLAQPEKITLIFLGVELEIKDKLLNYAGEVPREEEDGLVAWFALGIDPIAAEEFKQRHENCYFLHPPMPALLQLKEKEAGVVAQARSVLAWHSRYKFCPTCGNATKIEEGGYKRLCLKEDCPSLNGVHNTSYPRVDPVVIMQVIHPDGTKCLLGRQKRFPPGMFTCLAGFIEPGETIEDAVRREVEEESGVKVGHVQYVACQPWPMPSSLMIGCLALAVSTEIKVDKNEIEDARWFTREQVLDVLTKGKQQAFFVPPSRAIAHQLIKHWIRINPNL
# UniProt P80303: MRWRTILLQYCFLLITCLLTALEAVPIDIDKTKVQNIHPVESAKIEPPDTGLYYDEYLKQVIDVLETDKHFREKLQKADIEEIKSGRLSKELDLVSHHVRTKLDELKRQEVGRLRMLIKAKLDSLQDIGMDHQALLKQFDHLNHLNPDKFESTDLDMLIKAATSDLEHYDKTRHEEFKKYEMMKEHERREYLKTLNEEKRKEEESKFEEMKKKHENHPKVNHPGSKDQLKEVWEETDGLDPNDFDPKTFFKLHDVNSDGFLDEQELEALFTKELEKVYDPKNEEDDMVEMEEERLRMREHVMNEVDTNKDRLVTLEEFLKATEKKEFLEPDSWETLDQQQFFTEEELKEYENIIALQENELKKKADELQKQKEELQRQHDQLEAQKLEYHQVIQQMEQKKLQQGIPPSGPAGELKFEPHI
# UniProt P53384: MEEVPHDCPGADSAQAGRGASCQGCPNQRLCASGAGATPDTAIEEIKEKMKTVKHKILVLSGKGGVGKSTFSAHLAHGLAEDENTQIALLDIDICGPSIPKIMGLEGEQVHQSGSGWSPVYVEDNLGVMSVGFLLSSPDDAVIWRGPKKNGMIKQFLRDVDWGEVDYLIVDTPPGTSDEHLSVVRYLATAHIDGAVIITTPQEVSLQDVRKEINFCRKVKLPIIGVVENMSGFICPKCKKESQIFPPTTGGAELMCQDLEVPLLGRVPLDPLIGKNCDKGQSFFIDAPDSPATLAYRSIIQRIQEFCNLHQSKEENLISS
# UniProt Q9Y2X3: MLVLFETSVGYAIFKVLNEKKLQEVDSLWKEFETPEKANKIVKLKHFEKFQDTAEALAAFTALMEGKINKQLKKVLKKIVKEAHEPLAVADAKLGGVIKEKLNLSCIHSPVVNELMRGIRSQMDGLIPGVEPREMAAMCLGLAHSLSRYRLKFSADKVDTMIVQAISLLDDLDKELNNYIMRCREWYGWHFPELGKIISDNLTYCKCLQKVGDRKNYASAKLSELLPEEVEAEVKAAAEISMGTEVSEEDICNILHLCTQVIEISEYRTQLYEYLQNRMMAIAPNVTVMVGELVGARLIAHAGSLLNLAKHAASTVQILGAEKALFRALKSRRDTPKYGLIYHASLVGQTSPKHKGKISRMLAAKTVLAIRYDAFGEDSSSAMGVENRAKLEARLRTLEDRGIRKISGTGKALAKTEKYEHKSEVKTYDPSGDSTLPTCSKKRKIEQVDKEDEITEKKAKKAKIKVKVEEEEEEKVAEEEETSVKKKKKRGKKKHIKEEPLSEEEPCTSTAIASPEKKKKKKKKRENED
# UniProt Q9NZJ9: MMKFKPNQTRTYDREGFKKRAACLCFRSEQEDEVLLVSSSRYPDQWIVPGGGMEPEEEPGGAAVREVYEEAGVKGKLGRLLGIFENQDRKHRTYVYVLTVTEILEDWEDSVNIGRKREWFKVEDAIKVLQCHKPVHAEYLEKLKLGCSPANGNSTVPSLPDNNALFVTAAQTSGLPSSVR
# UniProt Q9Y6R0: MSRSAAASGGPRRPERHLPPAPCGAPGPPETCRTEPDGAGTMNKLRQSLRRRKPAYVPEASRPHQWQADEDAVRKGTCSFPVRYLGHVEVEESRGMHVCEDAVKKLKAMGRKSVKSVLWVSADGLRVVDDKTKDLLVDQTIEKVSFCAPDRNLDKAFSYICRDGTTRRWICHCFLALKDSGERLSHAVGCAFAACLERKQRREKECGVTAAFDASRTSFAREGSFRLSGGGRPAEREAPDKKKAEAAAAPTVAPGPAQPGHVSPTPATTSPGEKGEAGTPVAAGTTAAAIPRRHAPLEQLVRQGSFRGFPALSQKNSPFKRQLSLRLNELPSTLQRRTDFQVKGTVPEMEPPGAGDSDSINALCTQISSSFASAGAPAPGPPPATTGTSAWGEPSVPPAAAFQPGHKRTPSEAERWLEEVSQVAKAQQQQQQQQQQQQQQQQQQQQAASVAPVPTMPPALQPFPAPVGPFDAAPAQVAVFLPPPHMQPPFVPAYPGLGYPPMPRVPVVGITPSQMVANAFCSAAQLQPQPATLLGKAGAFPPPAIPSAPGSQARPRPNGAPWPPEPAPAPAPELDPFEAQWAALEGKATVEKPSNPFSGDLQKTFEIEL
# UniProt P46459: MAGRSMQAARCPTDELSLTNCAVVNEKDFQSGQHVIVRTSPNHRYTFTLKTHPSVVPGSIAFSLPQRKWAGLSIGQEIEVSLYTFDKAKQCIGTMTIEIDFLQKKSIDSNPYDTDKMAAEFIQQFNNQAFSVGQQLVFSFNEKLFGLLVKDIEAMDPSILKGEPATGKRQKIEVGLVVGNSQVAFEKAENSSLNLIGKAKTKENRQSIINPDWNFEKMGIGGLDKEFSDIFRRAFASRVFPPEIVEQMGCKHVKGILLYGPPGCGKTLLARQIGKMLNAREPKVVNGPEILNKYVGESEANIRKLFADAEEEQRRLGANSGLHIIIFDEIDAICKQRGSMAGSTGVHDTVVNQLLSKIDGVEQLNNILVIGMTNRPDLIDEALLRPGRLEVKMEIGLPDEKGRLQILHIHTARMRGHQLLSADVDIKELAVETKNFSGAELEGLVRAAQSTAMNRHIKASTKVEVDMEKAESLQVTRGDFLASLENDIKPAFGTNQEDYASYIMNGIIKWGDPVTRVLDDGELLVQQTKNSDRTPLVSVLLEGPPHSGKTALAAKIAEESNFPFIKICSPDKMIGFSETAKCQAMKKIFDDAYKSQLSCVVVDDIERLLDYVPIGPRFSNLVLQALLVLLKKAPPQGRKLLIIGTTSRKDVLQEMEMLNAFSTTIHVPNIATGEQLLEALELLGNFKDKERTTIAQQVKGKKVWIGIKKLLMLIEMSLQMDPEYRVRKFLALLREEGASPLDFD
# UniProt O75414: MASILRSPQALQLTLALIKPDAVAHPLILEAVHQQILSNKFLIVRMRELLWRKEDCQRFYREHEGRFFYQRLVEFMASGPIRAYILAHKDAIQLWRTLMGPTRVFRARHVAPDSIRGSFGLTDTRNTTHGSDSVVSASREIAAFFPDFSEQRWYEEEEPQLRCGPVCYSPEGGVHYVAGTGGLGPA
# UniProt O15118: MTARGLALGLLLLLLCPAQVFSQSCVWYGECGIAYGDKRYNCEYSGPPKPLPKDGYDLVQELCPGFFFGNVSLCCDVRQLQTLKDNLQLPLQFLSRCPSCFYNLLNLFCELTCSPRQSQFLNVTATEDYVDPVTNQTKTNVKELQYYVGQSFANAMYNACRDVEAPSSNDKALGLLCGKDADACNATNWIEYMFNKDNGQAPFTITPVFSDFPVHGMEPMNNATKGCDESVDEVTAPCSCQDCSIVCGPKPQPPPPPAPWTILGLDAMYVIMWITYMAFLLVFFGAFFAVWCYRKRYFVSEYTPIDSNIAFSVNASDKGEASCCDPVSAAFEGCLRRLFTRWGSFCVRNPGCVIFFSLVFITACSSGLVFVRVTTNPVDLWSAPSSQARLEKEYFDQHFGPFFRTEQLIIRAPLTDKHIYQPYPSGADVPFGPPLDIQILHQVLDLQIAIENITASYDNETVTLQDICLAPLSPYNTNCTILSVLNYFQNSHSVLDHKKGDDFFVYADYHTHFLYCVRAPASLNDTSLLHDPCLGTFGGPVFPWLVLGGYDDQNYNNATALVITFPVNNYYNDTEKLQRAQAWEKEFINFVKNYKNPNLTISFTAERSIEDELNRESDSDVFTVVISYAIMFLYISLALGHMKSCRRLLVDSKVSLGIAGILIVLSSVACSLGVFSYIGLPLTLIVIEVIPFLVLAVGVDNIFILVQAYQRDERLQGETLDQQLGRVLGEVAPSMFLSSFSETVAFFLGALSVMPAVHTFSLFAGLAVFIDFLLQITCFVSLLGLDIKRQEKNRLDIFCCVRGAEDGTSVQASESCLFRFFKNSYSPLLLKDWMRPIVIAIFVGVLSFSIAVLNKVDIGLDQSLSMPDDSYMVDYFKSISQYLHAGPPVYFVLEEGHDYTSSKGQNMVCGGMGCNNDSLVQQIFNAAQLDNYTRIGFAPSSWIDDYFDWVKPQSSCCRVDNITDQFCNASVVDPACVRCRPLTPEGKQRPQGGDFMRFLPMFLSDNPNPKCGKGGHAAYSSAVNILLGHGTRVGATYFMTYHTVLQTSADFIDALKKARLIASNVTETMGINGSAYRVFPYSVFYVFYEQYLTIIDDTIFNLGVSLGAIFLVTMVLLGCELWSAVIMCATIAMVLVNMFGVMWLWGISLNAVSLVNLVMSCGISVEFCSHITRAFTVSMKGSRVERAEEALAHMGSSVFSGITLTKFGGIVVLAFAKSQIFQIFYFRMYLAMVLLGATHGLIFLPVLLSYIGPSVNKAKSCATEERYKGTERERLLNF
# UniProt Q9Y639: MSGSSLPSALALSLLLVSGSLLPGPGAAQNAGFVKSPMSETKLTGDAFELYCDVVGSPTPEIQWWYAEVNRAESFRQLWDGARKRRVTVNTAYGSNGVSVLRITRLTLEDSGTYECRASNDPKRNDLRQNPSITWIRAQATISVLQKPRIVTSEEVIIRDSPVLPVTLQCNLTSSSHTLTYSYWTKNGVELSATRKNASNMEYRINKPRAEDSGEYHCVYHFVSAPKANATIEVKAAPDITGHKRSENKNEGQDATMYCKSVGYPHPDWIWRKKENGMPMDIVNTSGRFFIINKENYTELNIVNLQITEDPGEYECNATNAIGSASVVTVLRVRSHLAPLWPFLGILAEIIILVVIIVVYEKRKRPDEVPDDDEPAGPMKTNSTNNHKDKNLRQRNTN
# UniProt Q96RS6: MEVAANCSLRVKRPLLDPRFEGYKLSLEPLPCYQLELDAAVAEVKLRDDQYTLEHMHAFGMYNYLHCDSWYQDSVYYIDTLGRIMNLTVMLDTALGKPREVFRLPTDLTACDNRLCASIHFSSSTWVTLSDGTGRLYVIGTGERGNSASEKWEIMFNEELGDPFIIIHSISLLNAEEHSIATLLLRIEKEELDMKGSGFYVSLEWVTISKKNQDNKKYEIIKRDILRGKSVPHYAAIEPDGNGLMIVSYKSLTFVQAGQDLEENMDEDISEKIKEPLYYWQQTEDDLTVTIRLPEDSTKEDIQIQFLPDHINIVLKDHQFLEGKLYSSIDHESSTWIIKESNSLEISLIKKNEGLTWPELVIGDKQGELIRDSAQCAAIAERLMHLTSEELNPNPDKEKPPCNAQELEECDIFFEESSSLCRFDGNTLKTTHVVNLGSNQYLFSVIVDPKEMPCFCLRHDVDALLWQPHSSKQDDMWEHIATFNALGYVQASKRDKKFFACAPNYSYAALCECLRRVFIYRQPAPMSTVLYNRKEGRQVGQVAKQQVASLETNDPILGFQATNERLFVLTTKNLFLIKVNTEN
# UniProt Q9NSY0: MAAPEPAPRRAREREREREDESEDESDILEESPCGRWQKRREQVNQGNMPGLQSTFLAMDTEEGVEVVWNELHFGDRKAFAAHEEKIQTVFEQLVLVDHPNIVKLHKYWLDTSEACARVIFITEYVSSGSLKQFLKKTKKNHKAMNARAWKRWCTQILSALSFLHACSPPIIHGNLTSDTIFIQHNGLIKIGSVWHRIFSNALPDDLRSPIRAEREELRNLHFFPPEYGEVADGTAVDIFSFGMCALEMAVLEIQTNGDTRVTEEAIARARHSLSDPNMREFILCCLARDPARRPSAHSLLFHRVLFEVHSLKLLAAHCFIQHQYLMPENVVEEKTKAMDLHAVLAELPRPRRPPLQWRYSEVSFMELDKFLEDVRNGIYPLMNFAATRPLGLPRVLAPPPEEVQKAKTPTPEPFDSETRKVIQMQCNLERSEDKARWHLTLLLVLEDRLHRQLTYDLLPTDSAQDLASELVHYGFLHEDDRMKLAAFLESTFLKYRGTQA
# Legend:
# Experiment in all cases: log2 fold change, soluble protein after heating vs DMSO (PISA); higher = thermal stabilisation; K562 lysate, 10 uM; active = over 0.2 and 3.5 SD of the protein, either way, in both replicates (recomputed)
# [1] = compound: C#Cc1cccc(Nc2ncnc3cc(OCCOC)c(OCCOC)cc23)c1 [erlotinib]
# Method in brief: (§1)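 To prepare the extract, K562 pellets were dounce-homogenised in PBS pH 7.4 with 1 mM MgCl2, giving crude material at 1 mg/mL protein. This was treated with 10 μM compound for 30 min, then heated in aliquots for 3 min over 48°C-58°C before pooling and addition of NP-40 to 0.5% at 4°C. Centrifugation at 21,000xg for 90 min left soluble protein in the supernatant, which TMTpro 16plex LC-MS/MS quantified with equalised channel sums. Results are log-two fold changes in thermal stability compared with solvent controls, from duplicates.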
# [2] = compound: C/C(=N\NC(=O)C1=CC(=CC=C1)S(=O)(=O)N2CCOCC2)/C3=C(C=CC(=C3)Cl)O
# Method in brief: as §1
# [3] = compound: C1=CC(=CC=C1C2=NC3=C(N2)C=C(C=C3)C(=O)N)OC4=CC=C(C=C4)Cl
# Method in brief: as §1
# [4] = compound: C1=CC2=C(C=CC(=C2)/C=C\3/C(=O)NC(=NCC4=CC=CS4)S3)N=C1
# Method in brief: as §1
# [5] = compound: C1=CC2=NC=CN=C2C=C1/C=C/3\C(=O)NC(=O)S3
# Method in brief: as §1
# [6] = compound: C1=CC=C(C=C1)C2=NC(=C(N2)C3=CC=NC=C3)C4=CC(=C(C=C4)Cl)O
# Method in brief: as §1
# [7] = compound: C1=CC=C2C(=C1)C3=NNC4=CC=CC(=C43)C2=O
# Method in brief: as §1
# [8] = compound: C1CCN(C1)C(=O)NC2=CC=CC(=C2)NC3=NC=C(C(=N3)NCCC4=CN=CN4)Br
# Method in brief: as §1
# [9] = compound: C1CN(CCC1(CC2=CC=C(C=C2)Cl)N)C3=NC=NC4=C3C=CN4
# Method in brief: as §1
# [10] = compound: C1COCCN1CCN2C3=CC=CC=C3N=C2NC(=O)C4=CC(=CC=C4)[N+](=O)[O-] [IRAK-1-4 Inhibitor I]
# Method in brief: as §1
# [11] = compound: C=CC(=O)N1CCC[C@@H](n2nc(-c3ccc(Oc4ccccc4)cc3)c3c(N)ncnc32)C1 [ibrutinib]
# Method in brief: as §1
# [12] = compound: CC(=O)c1cnc2ccc(-c3cc(Cl)c(O)c(Cl)c3)nc2c1N[C@H]1CC[C@H](CN(C)C)CC1
# Method in brief: as §1
# [13] = compound: CC(C)(C)Cn1c(N)nc2ccc(-c3[nH]c(C(C)(C)C)nc3-c3ccc(F)cc3)nc21 [ralimetinib]
# Method in brief: as §1
# [14] = compound: CC(C)(O)CC(=O)NCCn1ccc2ncnc(Nc3ccc(Oc4cccc(C(F)(F)F)c4)c(Cl)c3)c21
# Method in brief: as §1
# [15] = compound: CC(C)C1=C2N=C(C=C(N2N=C1)NCC3=CC=CC=C3)NCCCCCCN
# Method in brief: as §1
# [16] = compound: CC1=C(C(CC(=O)N1)C2=CC=C(C=C2)C(F)(F)F)C(=O)NC3=C(C=C4C(=C3)C=NN4)F
# Method in brief: as §1
# [17] = compound: CC1=C(C2=C(C=C1)C(=O)C3=CC=CC=C3N2CCCN)C
# Method in brief: as §1
# [18] = compound: CC1=C(C=C(C=C1)NC(=O)C2=CC(=CC=C2)C(C)(C)C#N)NC3=CC4=C(C=C3)N=CN(C4=O)C
# Method in brief: as §1
# [19] = compound: CC1=C(C=C(C=C1)NC(=O)C2=CC(=CC=C2)N(C)C)NC(=O)C3=CC=C(C=C3)O
# Method in brief: as §1
# [20] = compound: CC1=CC=C(C=C1)SC2=C3C=C(SC3=CN=C2)C(=O)N
# Method in brief: as §1
Target,log2 fold change [1],log2 fold change [2],log2 fold change [3],log2 fold change [4],log2 fold change [5],log2 fold change [6],log2 fold change [7],log2 fold change [8],log2 fold change [9],log2 fold change [10],log2 fold change [11],log2 fold change [12],log2 fold change [13],log2 fold change [14],log2 fold change [15],log2 fold change [16],log2 fold change [17],log2 fold change [18],log2 fold change [19],log2 fold change [20]
NUDC (UniProt Q9Y266),inactive: -0.03,inactive: 0.052,inactive: 0.003,inactive: -0.027,inactive: -0.012,inactive: 0.016,inactive: 0.005,inactive: -0.007,inactive: 0.008,inactive: 0.004,inactive: 0,inactive: 0.001,inactive: -0.019,inactive: 0.013,inactive: -0.012,inactive: -0.026,inactive: 0.012,inactive: -0.027,inactive: 0.005,inactive: 0.008
NUDT12 (UniProt Q9BQG2),inactive: 0.021,inactive: 0.054,inactive: 0.024,inactive: -0.003,inactive: 0.041,inactive: 0.015,inactive: 0.078,inactive: -0.024,inactive: 0.024,inactive: 0.022,inactive: -0.004,inactive: 0.025,inactive: -0.021,inactive: -0.035,inactive: -0.077,inactive: -0.035,inactive: 0.06,inactive: 0.047,inactive: -0.003,inactive: -0.029
NUCB2 (UniProt P80303),inactive: -0.003,inactive: 0.018,inactive: 0.014,inactive: -0.018,inactive: 0.011,inactive: -0.015,inactive: -0.017,inactive: 0.003,inactive: 0.003,inactive: 0.007,inactive: 0.025,inactive: 0.002,inactive: -0.023,inactive: 0.01,inactive: 0.009,inactive: 0.04,inactive: -0.006,inactive: 0,inactive: -0.015,inactive: -0.014
NUBP1 (UniProt P53384),inactive: 0.003,inactive: 0.013,inactive: -0.047,inactive: -0.038,inactive: 0.015,inactive: 0.03,inactive: 0.026,inactive: 0.031,inactive: -0.005,inactive: 0.034,inactive: 0.027,inactive: 0.042,inactive: -0.054,inactive: -0.033,inactive: 0.004,inactive: -0.005,inactive: -0.012,inactive: 0.013,inactive: -0.03,inactive: 0.01
NPM3 (UniProt O75607),inactive: 0.023,inactive: -0.047,inactive: 0.034,inactive: 0.019,inactive: -0.059,inactive: -0.013,inactive: 0.025,inactive: -0.004,inactive: 0.053,inactive: -0.028,inactive: 0.038,inactive: 0.03,inactive: 0.029,inactive: -0.077,inactive: 0.018,inactive: 0.048,inactive: -0.03,inactive: 0.069,inactive: 0.018,inactive: -0.037
NOP58 (UniProt Q9Y2X3),inactive: 0.021,inactive: 0.059,inactive: -0.006,inactive: 0.035,inactive: -0.008,inactive: 0.036,inactive: 0.042,inactive: -0.008,inactive: 0.006,inactive: -0.028,inactive: 0.003,inactive: -0.007,inactive: -0.03,inactive: -0.018,inactive: 0.004,inactive: -0.003,inactive: -0.027,inactive: -0.009,inactive: 0.006,inactive: 0.015
NSMAF (UniProt Q92636),inactive: -0.024,inactive: -0.047,inactive: -0.001,inactive: 0.038,inactive: 0.029,inactive: -0.013,inactive: -0.003,inactive: -0.007,inactive: -0.002,inactive: 0.021,inactive: -0.037,inactive: -0.015,inactive: 0.011,inactive: 0.002,inactive: 0.014,inactive: 0.002,inactive: -0.002,inactive: 0.01,inactive: 0.01,inactive: 0.024
NUDT4 isoform 2 (UniProt Q9NZJ9),inactive: 0.023,inactive: 0.015,inactive: 0.05,inactive: -0.048,inactive: 0.015,inactive: -0.007,inactive: -0.005,inactive: -0.069,inactive: 0.032,inactive: -0.006,inactive: -0.006,inactive: 0.002,inactive: 0.035,inactive: -0.044,inactive: -0.006,inactive: 0.016,inactive: -0.054,inactive: 0.034,inactive: 0.024,inactive: -0.024
NUMBL (UniProt Q9Y6R0),inactive: 0.031,inactive: 0.028,inactive: 0.175,inactive: -0.244,inactive: -0.025,inactive: -0.007,inactive: -0.038,inactive: -0.095,inactive: -0.045,inactive: -0.084,inactive: 0.047,inactive: -0.023,inactive: -0.009,inactive: 0.028,inactive: 0.07,inactive: 0.071,inactive: -0.081,inactive: 0.076,inactive: 0.058,inactive: -0.008
NSF (UniProt P46459),inactive: -0.019,inactive: 0.01,inactive: -0.037,inactive: -0.001,inactive: 0.005,inactive: 0.003,inactive: -0.029,inactive: -0.006,inactive: -0.013,inactive: -0.01,inactive: 0.002,inactive: 0.005,inactive: 0.008,inactive: 0.005,inactive: -0.005,inactive: 0.003,inactive: 0.011,inactive: -0.021,inactive: 0.004,inactive: 0.002
NTMT1 (UniProt Q9BV86),inactive: 0.002,inactive: 0.031,inactive: 0.02,inactive: 0.055,inactive: -0.001,inactive: -0.002,inactive: 0.014,inactive: 0.021,inactive: 0.042,inactive: -0.033,inactive: -0.025,inactive: 0.022,inactive: -0.025,inactive: -0.018,inactive: 0,inactive: -0.005,inactive: -0.01,inactive: -0.008,inactive: 0.047,inactive: 0.01
NME6 (UniProt O75414),inactive: -0.008,inactive: -0.033,inactive: 0.046,inactive: -0.013,inactive: 0.027,inactive: -0.002,inactive: 0.003,inactive: -0.04,inactive: 0.051,inactive: -0.002,inactive: 0.089,inactive: 0.026,inactive: 0.035,inactive: -0.044,inactive: -0.038,inactive: -0.046,inactive: -0.049,inactive: 0.112,inactive: -0.021,inactive: -0.025
NPC1 (UniProt O15118),inactive: 0.003,inactive: -0.03,inactive: 0.014,inactive: 0.014,inactive: -0.004,inactive: -0.02,inactive: 0.038,inactive: -0.009,inactive: 0.043,inactive: -0.008,inactive: 0.01,inactive: -0.011,inactive: 0.011,inactive: -0.035,inactive: -0.004,inactive: -0.005,inactive: -0.021,inactive: -0.013,inactive: 0.008,inactive: -0.052
NPTN (UniProt Q9Y639),inactive: -0.047,inactive: -0.02,inactive: -0.056,active: -0.421,inactive: 0.008,inactive: 0.048,inactive: 0.17,inactive: -0.003,inactive: 0.007,inactive: 0.064,inactive: 0.069,inactive: 0.026,inactive: 0.042,inactive: -0.009,inactive: 0.007,inactive: -0.02,inactive: -0.015,inactive: 0.038,inactive: 0.004,inactive: -0.046
NUDCD1 (UniProt Q96RS6),inactive: 0.023,inactive: -0.028,inactive: 0.004,inactive: -0.002,inactive: 0.017,inactive: 0.017,inactive: -0.021,inactive: -0.006,inactive: 0.025,inactive: 0.004,inactive: -0.03,inactive: 0.015,inactive: 0.027,inactive: 0,inactive: -0.028,inactive: 0.008,inactive: -0.003,inactive: 0.025,inactive: -0.019,inactive: -0.007
NRBP2 (UniProt Q9NSY0),inactive: 0.087,inactive: 0.038,inactive: 0.064,inactive: 0.053,inactive: 0.133,inactive: 0.042,inactive: -0.051,inactive: -0.02,inactive: 0.025,inactive: 0.012,inactive: 0.002,inactive: 0,inactive: -0.016,inactive: -0.107,inactive: -0.017,inactive: 0.069,inactive: -0.024,inactive: -0.065,inactive: 0.014,inactive: 0.028

# Whole records from above. Order of values: log2 fold change [1] | log2 fold change [2] | log2 fold change [3] | log2 fold change [4] | log2 fold change [5] | log2 fold change [6] | log2 fold change [7] | log2 fold change [8] | log2 fold change [9] | log2 fold change [10] | log2 fold change [11] | log2 fold change [12] | log2 fold change [13] | log2 fold change [14] | log2 fold change [15] | log2 fold change [16] | log2 fold change [17] | log2 fold change [18] | log2 fold change [19] | log2 fold change [20]
# NPM3 (UniProt O75607) as listed: inactive: 0.023 | inactive: -0.047 | inactive: 0.034 | inactive: 0.019 | inactive: -0.059 | inactive: -0.013 | inactive: 0.025 | inactive: -0.004 | inactive: 0.053 | inactive: -0.028 | inactive: 0.038 | inactive: 0.03 | inactive: 0.029 | inactive: -0.077 | inactive: 0.018 | inactive: 0.048 | inactive: -0.03 | inactive: 0.069 | inactive: 0.018 | inactive: -0.037
# NPTN (UniProt Q9Y639) as listed: inactive: -0.047 | inactive: -0.02 | inactive: -0.056 | active: -0.421 | inactive: 0.008 | inactive: 0.048 | inactive: 0.17 | inactive: -0.003 | inactive: 0.007 | inactive: 0.064 | inactive: 0.069 | inactive: 0.026 | inactive: 0.042 | inactive: -0.009 | inactive: 0.007 | inactive: -0.02 | inactive: -0.015 | inactive: 0.038 | inactive: 0.004 | inactive: -0.046
